Values joined by “and” are separate entries in the source; they are usually repeats but may differ in a detail not shown here. Equal entries are not always repeated. This is one part of the list. The main result of the screen is listed elsewhere. These columns were measured beside it and carry no call. The list favours compounds with an active or inconclusive main result. Words in brackets tell the shape of the fitted curve; partial curves, single points and poor fits give uncertain potencies.
assay: Cell signaling CRE-BLA (Fsk stim); conditions: CHO CRE-bla reporter (cAMP response element driving beta-lactamase), forskolin EC10, beta-lactamase ratio; measured here: 460 nm blue channel
Procedure, shortened: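 qHTS titration format; CRE-bla CHO reporter; stimulus EC10 NKH 477, a water-soluble forskolin. Read: CCF4 460/530 nm ratio. Potency expressed as AC50 for activators or inhibitors.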

| SMILES | AC50 |
| --- | --- |
| C=CCn1c(SCC#N)nc2ccccc2c1=O | 10 µM [rising, partial curve] |
| Cc1ccc(-n2c(=O)c3sccc3n(CC(=O)NCc3ccco3)c2=O)cc1 | 0.251 µM [falling, full curve] |
| COc1ccc(Cc2nn3c(-c4ccccc4OC)nnc3s2)cc1 | 10 µM [rising, single point] |
| CNc1ccnc(-c2cccc(NS(C)(=O)=O)c2)n1 | 3.16 µM [rising, full curve, poor fit] |
| CCOC(=O)CCn1c(CC(=O)OCC)nc2ccccc21 | 3.16 µM [rising, full curve] |
| CCCc1nc(SCc2cccnc2)c2c(=O)n(C)c(=O)n(C)c2n1 | 3.16 µM [rising, full curve] |
| CC(=O)c1c(N2CCN(Cc3ccccc3)CC2)[nH]c(-c2ccccc2)nc1=S | 1.26 µM [falling, partial curve] |
| COc1ccc(CCNC(=O)c2sc(=S)n(C)c2N)cc1 | 25.1 µM [rising, single point] |
| CCCc1nc(SCC(=O)N2CCC(Cc3ccccc3)CC2)c2c(=O)n(C)c(=O)n(C)c2n1 | 12.6 µM [falling, partial curve] |
| CN(C(=O)COC(=O)COc1ccc(Cl)cc1)C1CCCCC1 | 5.01 µM [falling, single point] |
| COc1cccc(Cn2c(=O)c(CCc3ccccc3)nc3cnc(N4CCNCC4)nc32)c1 | 3.16 µM [rising, partial curve] |
| COc1ccc(CNc2ncncc2-c2ccc3c(c2)OCO3)c(OC)c1 | 3.98 µM [rising, full curve] |
| COc1ccccc1NC(=O)CN1CCN(CC(=O)Nc2ccc3c(c2)OCO3)CC1 | 0.398 µM [rising, full curve, poor fit] |
| Cc1ccc2c(c1)-c1cc(C)nn1C(c1ccc3c(c1)OCO3)N2 (stereo not drawn) | 15.8 µM [rising, partial curve] |
| COc1ccc(-c2noc(CCC(=O)Nc3cc(OC)ccc3OC)n2)cc1 | 1 µM [falling, partial curve] |
| C=CCN1CCc2cc(O)c(O)cc2[C@H](c2ccccc2)C1 | 31.6 µM [falling, single point] |
| CC(C)n1c2ccccc2c2nc3ccccc3nc21 | 3.16 µM [rising, partial curve] |
| CC(C)NC(=O)C1CCN(C(=O)c2cc3sccc3n2Cc2ccc(F)cc2)CC1 | 3.16 µM [falling, single point] |
| O=C(COC(=O)CN1C(=O)C2CC=CCC2C1=O)Nc1cc(C(F)(F)F)ccc1N1CCOCC1 (stereo not drawn) | 15.8 µM [rising, single point] |
| COC(=O)N[C@H](c1ccccc1)[C@@]1(C)C[C@@H]1[C@@H](C)C(=O)Nc1ccc2ccccc2c1 | 5.01 µM [falling, partial curve] |
| COc1ccccc1NC(=O)c1cc(S(=O)(=O)N2CCOCC2)ccc1Cl | 25.1 µM [rising, single point] |
| CCCCC(=O)Nc1ccc(NC(=O)C(C)C)cn1 | 0.00316 µM [falling, full curve, poor fit] |
| O=C(Cn1cnc2c(cnn2-c2ccc(F)cc2)c1=O)OCc1ccccc1 | 0.126 µM [falling, full curve, poor fit] |

| SMILES | AC50 |
| --- | --- |
| Cc1ccccc1-n1c(SCc2ccccn2)nc2n[nH]c(C)c2c1=N | 0.398 µM [rising, full curve] |
| COc1ccc(-c2cc(OC)c3c(C)oc(C)c3c(=O)c2)cc1OC | 12.6 µM [rising, partial curve] |
| O=C(Cc1ccc(-n2cccc2)cc1)N1CCN(c2ccccc2F)CC1 | 25.1 µM [rising, single point] |
| Cc1ccccc1-c1nc(CN2CCC(C(=O)NCc3cccnc3)CC2)c(C)o1 | 7.94 µM [falling, partial curve] |
| C[C@H]1C=C2C=C[C@H](C)[C@H](CC[C@@H]3C[C@@H](O)CC(=O)O3)[C@H]2[C@@H](OC(=O)[C@@H](C)CCO)C1 | 25.1 µM [rising, single point] |
| Cc1c(OCC(F)(F)F)ccnc1CS(=O)c1nc2ccccc2[nH]1 (stereo not drawn) | 25.1 µM [rising, single point] and 12.6 µM [rising, single point] |
| C=CCNc1nc(NCc2ccco2)nc(OCC)n1 | 10 µM [rising, single point] |
| COc1ccc(C2(C)NC(=O)N(Cc3cc(Cl)cc4c3OCOC4)C2=O)cc1OC (stereo not drawn) | 3.98 µM [rising, partial curve] |
| CC(C)c1ccc(S(=O)(=O)c2n[nH]n3c2nc(=O)c2ccccc23)cc1 | 0.501 µM [rising, full curve] |
| COc1cccc(NC(=O)Cn2nnc(C(=O)Nc3ccccc3)c2N)c1 | 6.31 µM [falling, partial curve, poor fit] |
| NC(=O)COc1ccc(NC(=O)OCc2ccccc2)cc1 | 0.00316 µM [falling, full curve, poor fit] |
| CC1CN(C(=O)COC(=O)c2cccs2)CC(C)O1 (stereo not drawn) | 5.01 µM [falling, full curve] |
| CSc1ccccc1NC(=O)c1cc(-c2cccs2)on1 | 31.6 µM [falling, single point] |
| Cc1ccccc1NC(=O)CSC(N)=O | 0.501 µM [falling, full curve] |
| CCn1c2ccccc2c2cc(NC(=O)CSc3nnc(C4CC4)n3Cc3ccco3)ccc21 | 15.8 µM [falling, single point] |
| COCc1nc(-c2cc(OC)c(OC)c(OC)c2)no1 | 25.1 µM [rising, single point] |
| COc1ccc(-c2nnc(CSc3ncnc4sc5c(c34)CCC5)o2)cc1OC | 2.51 µM [rising, full curve] |
| CCc1ccc(CNC(=O)CN2C(=O)COc3ccccc32)cc1 | 0.01 µM [falling, full curve, poor fit] |
| Cc1cc(-c2ccccc2)n2ncc(C#N)c2n1 | 12.6 µM [rising, partial curve] |
| O=S(=O)(c1cccc(-c2csc(-c3cccnc3)n2)c1)N1CCCCC1 | 5.01 µM [rising, single point] |
| COc1nc(-c2ccccc2)ccc1-c1noc(-c2cccnc2)n1 | 3.16 µM [rising, full curve] |
| CN(C)c1cc(-c2cccc(NS(C)(=O)=O)c2)ncn1 | 2.51 µM [rising, partial curve, poor fit] |
| C=C(C)CC1Nc2ccccc2NC1CC(=C)C (stereo not drawn) | 15.8 µM [rising, single point] |

For convenience, part of the list above:

| SMILES | AC50 |
| --- | --- |
| O=C(Cc1ccc(-n2cccc2)cc1)N1CCN(c2ccccc2F)CC1 | 25.1 µM [rising, single point] |
| Cc1ccccc1-c1nc(CN2CCC(C(=O)NCc3cccnc3)CC2)c(C)o1 | 7.94 µM [falling, partial curve] |
| C[C@H]1C=C2C=C[C@H](C)[C@H](CC[C@@H]3C[C@@H](O)CC(=O)O3)[C@H]2[C@@H](OC(=O)[C@@H](C)CCO)C1 | 25.1 µM [rising, single point] |
| Cc1c(OCC(F)(F)F)ccnc1CS(=O)c1nc2ccccc2[nH]1 (stereo not drawn) | 25.1 µM [rising, single point] and 12.6 µM [rising, single point] |
| C=CCNc1nc(NCc2ccco2)nc(OCC)n1 | 10 µM [rising, single point] |
| COc1ccc(C2(C)NC(=O)N(Cc3cc(Cl)cc4c3OCOC4)C2=O)cc1OC (stereo not drawn) | 3.98 µM [rising, partial curve] |
| CC(C)c1ccc(S(=O)(=O)c2n[nH]n3c2nc(=O)c2ccccc23)cc1 | 0.501 µM [rising, full curve] |
| COc1cccc(NC(=O)Cn2nnc(C(=O)Nc3ccccc3)c2N)c1 | 6.31 µM [falling, partial curve, poor fit] |
| NC(=O)COc1ccc(NC(=O)OCc2ccccc2)cc1 | 0.00316 µM [falling, full curve, poor fit] |
| CC1CN(C(=O)COC(=O)c2cccs2)CC(C)O1 (stereo not drawn) | 5.01 µM [falling, full curve] |
| CSc1ccccc1NC(=O)c1cc(-c2cccs2)on1 | 31.6 µM [falling, single point] |
| Cc1ccccc1NC(=O)CSC(N)=O | 0.501 µM [falling, full curve] |
| CCn1c2ccccc2c2cc(NC(=O)CSc3nnc(C4CC4)n3Cc3ccco3)ccc21 | 15.8 µM [falling, single point] |
| COCc1nc(-c2cc(OC)c(OC)c(OC)c2)no1 | 25.1 µM [rising, single point] |
| COc1ccc(-c2nnc(CSc3ncnc4sc5c(c34)CCC5)o2)cc1OC | 2.51 µM [rising, full curve] |
| CCc1ccc(CNC(=O)CN2C(=O)COc3ccccc32)cc1 | 0.01 µM [falling, full curve, poor fit] |
| Cc1cc(-c2ccccc2)n2ncc(C#N)c2n1 | 12.6 µM [rising, partial curve] |
| O=S(=O)(c1cccc(-c2csc(-c3cccnc3)n2)c1)N1CCCCC1 | 5.01 µM [rising, single point] |
| COc1nc(-c2ccccc2)ccc1-c1noc(-c2cccnc2)n1 | 3.16 µM [rising, full curve] |
| CN(C)c1cc(-c2cccc(NS(C)(=O)=O)c2)ncn1 | 2.51 µM [rising, partial curve, poor fit] |

Remaining list, next part

| SMILES | AC50 |
| --- | --- |
| COc1ccc(CC(=O)Nc2cc(Cl)ccc2O)cc1 | 12.6 µM [rising, single point] |
| COc1cc(C)c(CN2CCCCC2CO)cc1C (stereo not drawn) | 0.251 µM [rising, partial curve] |
| CCn1nc(C(=O)OCc2c(C)noc2C)c2ccccc2c1=O | 20 µM [rising, partial curve] |
| C=CCSc1nc2c(c(=O)[nH]1)C(C(C)C)C(C#N)=C(N)O2 (stereo not drawn) | 12.6 µM [rising, single point] |
| Oc1oc(-c2ccco2)nc1C=Nc1ccccc1 | 20 µM [falling, single point] |
| CCOC(=O)c1[nH]nc2c1C(=O)N(Cc1ccccc1)C2=O | 20 µM [falling, partial curve, poor fit] |
| CN(C)c1ccc(-c2cc(NCc3cccnc3)ncn2)cc1 | 10 µM [rising, partial curve] |
| O=C(c1ccc(Cl)cc1)C1C2C(=O)N(c3ccccc3)C(=O)C2C2CCCN21 (stereo not drawn) | 3.16 µM [falling, full curve] |
| COc1ccc(Cl)cc1NC(=O)c1cnc2sccn2c1=O | 15.8 µM [rising, single point] |
| Cc1ccccc1OCc1nc(-c2ccc(NC(=O)c3ccc4c(c3)OCO4)cc2)no1 | 25.1 µM [falling, single point] |
| N#Cc1cnc(SCCc2ccccc2)nc1N | 12.6 µM [rising, single point] |
| CC(C)n1c(SCC(=O)N2CCCC2)nc2c1c(=O)n(C)c(=O)n2C | 12.6 µM [rising, partial curve] |
| CCOC(=O)C1CCN(C(=O)C2(NC(=O)Nc3ccccc3Cl)CCCCC2)CC1 | 0.00794 µM [falling, partial curve, poor fit] |
| O=[N+]([O-])c1ccc(S(=O)(=O)Cc2ccccc2)c([N+](=O)[O-])c1 | 2.51 µM [falling, partial curve] |
| Cc1cccn2c(=O)c3cc(C(=O)N4CCc5ccccc5C4)n(C)c3nc12 | 0.398 µM [rising, partial curve] |
| COc1cccc(C2=NOC(C(=O)NC(C)(C)C)C2)c1 (stereo not drawn) | 2.51 µM [falling, partial curve, poor fit] |
| Cc1cccc(NC(=O)CSC(N)=O)c1C | 15.8 µM [falling, single point] |
| COc1ccc(CCNS(=O)(=O)c2cccc(S(=O)(=O)N3CCCC3)c2)cc1OC | 15.8 µM [rising, partial curve] |
| CC(C)(C)n1nnnc1CN1CCC(NC(=O)NC2CCCCC2)CC1 | 0.01 µM [falling, full curve, poor fit] |
| CCCc1nc(N)c(C#N)c(-c2ccco2)c1CC | 10 µM [rising, partial curve] |
| O=C(NC1CCS(=O)(=O)C1)c1cccc(S(=O)(=O)N2CCCCC2)c1 (stereo not drawn) | 10 µM [rising, single point] |
| COC(=O)c1cc(NCc2c(F)cccc2Cl)ccc1N1CCOCC1 | 12.6 µM [rising, single point] |

From PubChem BioAssay AID662 (National Center for Advancing Translational Sciences (NCATS), 2007)
